From paper PMC4599002, “The Potato Nucleotide-binding Leucine-rich Repeat (NLR) Immune Receptor Rx1 Is a Pathogen-dependent DNA-deforming Protein” (The Journal of Biological Chemistry, 2015) come the findings set out here.

Data set [1] has as its target T1, Rx1(1-489) WT (CC-NB-ARC) (potato (introgressed from Solanum andigena)) (UniProt Q9XGF5).
T1 sequence (looked up): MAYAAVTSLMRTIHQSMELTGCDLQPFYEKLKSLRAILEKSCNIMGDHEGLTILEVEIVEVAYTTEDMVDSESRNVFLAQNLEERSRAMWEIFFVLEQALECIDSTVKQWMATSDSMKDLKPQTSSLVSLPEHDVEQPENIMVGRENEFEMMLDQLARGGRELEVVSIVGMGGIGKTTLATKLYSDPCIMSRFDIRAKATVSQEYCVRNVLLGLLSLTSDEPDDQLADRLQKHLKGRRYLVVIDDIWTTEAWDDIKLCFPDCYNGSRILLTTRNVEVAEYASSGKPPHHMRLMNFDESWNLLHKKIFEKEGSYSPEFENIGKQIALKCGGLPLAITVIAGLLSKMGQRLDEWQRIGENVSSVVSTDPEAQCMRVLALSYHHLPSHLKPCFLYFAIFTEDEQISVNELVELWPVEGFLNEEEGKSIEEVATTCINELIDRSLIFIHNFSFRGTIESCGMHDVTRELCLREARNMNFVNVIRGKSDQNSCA
The data set can be described thus: EMSA. The conditions noted are these: EMSA: 0.15 nM 32P nucleic acid, 20 mM Tris-HCl pH 8.0, 60 mM NaCl, 2 mM EDTA, 1 mM DTT, 10% glycerol, 0.1 mg/ml BSA, 20 min on ice, recombinant protein, residues 1-489, protein details: His6 (pET32c).

The target of data set [2] is T2, Rx1(1-489) K176R (potato (introgressed from Solanum andigena)) (UniProt Q9XGF5).
T2 sequence (looked up): T1 sequence (looked up) with K176R
Description: EMSA. Particulars: EMSA: 0.15 nM 32P nucleic acid, 20 mM Tris-HCl pH 8.0, 60 mM NaCl, 2 mM EDTA, 1 mM DTT, 10% glycerol, 0.1 mg/ml BSA, 20 min on ice, recombinant protein, residues 1-489, protein details: His6 (pET32c), label: 32P 5' end.

[3] abbreviates: label: 32P 5' end, single-stranded DNA.
Where [4] appears, read: affinity did not correlate with increasing bubble size, label: 32P 5' end of strand 1, folded or branched DNA.

Residue numbers refer to the chain shown, from its start. The comparison behind a weaker result is the experiment's own reference, which may not be listed here. Protein sequences can lack the tags named with them. Construct, isoform or probe ends are uncertain for at least one entry. At least one verdict was read from the data and is not stated in words by the source.

As to “GACGCTGCCGAATTCTGGCTTGCTAGGACATCTTTGCCCACGTTGACCC (double strand) [dsF12]”, the binding result in data set [1] (lower affinity than F12-ds/ds, label: 32P 5' end of strand 1) is reported as “binds more weakly”.

“GACGCTGCCGAATTCTGGCTTGCTAGGACATCTTTGCCCACGTTGACCC / TGGGTCAACGTGGGCAAAGATGTCCTAGCAATGTAATCGTCTATGACGTT / AACGTCATAGACGATTACA [F12-ds/ss]”: in data set [1] (lower affinity than F12-ss/ss, label: 32P 5' end of strand 1, folded or branched DNA), the binding result is given as “binds”.

On to “GACGCTGCCGAATTCTGGCTTGCTAGGACATCTTTGCCCACGTTGACCC / TGGGTCAACGTGGGCAAAGATGTCCTAGCAATGTAATCGTCTATGACGTT / GCCAGAATTCGGCAGCGTC / AACGTCATAGACGATTACA [F12-ds/ds]”, for which, in data set [1] (higher affinity than dsF12, label: 32P 5' end of strand 1, folded or branched DNA), the binding result is recorded as “binds”.

Take “GACGCTGCCGAATTCTGGCTTGCTAGGACATCTTTGCCCACGTTGACCC [ssF12 (SS3)]”: the binding result in data set [1] (setting [3]) is given as “binds”.

For “TGGGTCAACGTGGGCAAAGATGTCCTAGCAATGTAATCGTCTATGACGTT (double strand) [SS1/SS2 dsDNA]”, the binding result in data set [2] (1 uM ADP, 10 mM ZnCl2, no discriminatory influence of nucleotide) is given as “binds”; in data set [2] (1 uM ATP, 10 mM ZnCl2, no discriminatory influence of nucleotide) it was “binds”; in data set [2] (lower affinity than WT) it was “binds more weakly”.

As for “TTTGGTCTAACTTTACCGCTACTAAATGCCGCGGATTGGTTTCGCTGAATCAGGTTATTA (double strand) [dsP1]”, in data set [1] (lower affinity than small bubbles, label: 32P 5' end of strand 1), the binding result is “binds more weakly”.

“TTTGGTCTAACTTTACCGCTACTAAATGCCGCGGATTGGTTTCGCTGAATCAGGTTATTA / TAATAACCTGATTCAGCGAAACATTGTAGGTAAGCTTAGTAGCGGTAAAGTTAGACCAAA [dsP1-13]”: the binding result in data set [1] (setting [4]) is listed as “binds”.

Turning to “TTTGGTCTAACTTTACCGCTACTAAATGCCGCGGATTGGTTTCGCTGAATCAGGTTATTA / TAATAACCTGATTCAGCGAACCAATCGCAACCATTTAGTAGCGGTAAAGTTAGACCAAA [dsP1-5]”, in data set [1] (small bubble, higher affinity than linear dsDNA, label: 32P 5' end of strand 1, folded or branched DNA), the binding result is listed as “binds”.

Regarding “TTTGGTCTAACTTTACCGCTACTAAATGCCGCGGATTGGTTTCGCTGAATCAGGTTATTA / TAATAACCTGATTCAGCGAATGACCGATAACGTCCACTTGAGCGGTAAAGTTAGACCAAA [dsP1-20]”, in data set [1] (setting [4]), the binding result is “binds”.

In the case of “TTTGGTCTAACTTTACCGCTACTAAATGCCGCGGATTGGTTTCGCTGAATCAGGTTATTA [ssP1]”, the binding result in data set [1] (setting [3]) is listed as “binds”.

For “UGGGUCAACGUGGGCAAAGAUGUCCUAGCAAUGUAAUCGUCUAUGACGUU [SS1 ssRNA]”, the binding result in data set [2] (lower affinity than WT) is given as “binds more weakly”.
